Structures can show the parent of a compound that is named as a salt. The list shows a part of the results. Repeats in this data set agree poorly, so a single value says little.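 Cells: ReNCell VM human fetal ventral-midbrain neural progenitors, differentiated mitogen-free. Blinded raters compared doublecortin-stained (early neurons) or tyrosine hydroxylase-stained (dopaminergic neurons) images with untreated wells, where 0 means no change. After repeats and both raters were averaged, compounds scoring 2 or above became hits for retesting.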
What was measured:
ReNCell VM [1] = experiment: neuronal differentiation score (DCX+ cell fraction vs untreated, manual image score) (score (-3 to 3)); higher = more neuronal differentiation; conditions: 2 uM, 2 weeks
ReNCell VM [2] = experiment: dopaminergic neuron differentiation score (TH+ cell fraction vs untreated, manual image score) (score (0 to 3)); higher = more TH+ dopaminergic neuron differentiation; conditions: 2 uM, 4 weeks, BDNF 10 ng/ml + GDNF 10 ng/ml

SMILES: CCOC(=O)n1ccn(C)c1=S
- neuronal differentiation score (ReNCell VM [1]; library: Spectrum): inactive: 0
- dopaminergic neuron differentiation score (ReNCell VM [2]; library: Spectrum): inactive: 0

SMILES: O=C(O)c1cc(=O)c(O)c(C(=O)O)o1 [Meconic acid]
- neuronal differentiation score (ReNCell VM [1]; library: Phytochemical): inactive: 0
- dopaminergic neuron differentiation score (ReNCell VM [2]; library: Phytochemical): inactive: 0

SMILES: COc1cc(NS(=O)(=O)c2ccc(N)cc2)nc(OC)n1
- neuronal differentiation score (ReNCell VM [1]; library: Spectrum): inactive: 0
- dopaminergic neuron differentiation score (ReNCell VM [2]; library: Spectrum): inactive: 0

SMILES: COc1ccccc1Oc1c(NS(=O)(=O)c2ccc(C(C)(C)C)cc2)nc(-c2ncccn2)nc1OCCO [Bosentan]
- neuronal differentiation score (ReNCell VM [1]; library: Prestwick): inactive: 0
- dopaminergic neuron differentiation score (ReNCell VM [2]; library: Prestwick): inactive: 0

SMILES: CCCn1c(=O)c2[nH]c(C3CCCC3)nc2n(CCC)c1=O
- neuronal differentiation score (ReNCell VM [1]; library: Tocriscreen): inactive: 0
- dopaminergic neuron differentiation score (ReNCell VM [2]; library: Tocriscreen): inactive: 0

SMILES: CC(C)N1Cc2cc(S(C)(=O)=O)ccc2N(CCN2CC=C(c3c[nH]c4cc(F)ccc34)CC2)S1(=O)=O
- neuronal differentiation score (ReNCell VM [1]; library: Tocriscreen): inactive: 0
- dopaminergic neuron differentiation score (ReNCell VM [2]; library: Tocriscreen): inactive: 0

SMILES: NC(=O)[C@@H]1CCCN1C(=O)[C@H](Cc1c[nH]cn1)NC(=O)[C@@H]1CCC(=O)N1
- neuronal differentiation score (ReNCell VM [1]; library: Spectrum): inactive: 0
- dopaminergic neuron differentiation score (ReNCell VM [2]; library: Spectrum): inactive: 0

SMILES: C[C@H]1C[C@H]2[C@@H]3CCC4=CC(=O)C=C[C@]4(C)[C@@]3(F)[C@@H](O)C[C@]2(C)[C@@]1(O)C(=O)CO
- neuronal differentiation score (ReNCell VM [1]; library: Spectrum): inactive: 0
- dopaminergic neuron differentiation score (ReNCell VM [2]; library: Spectrum): inactive: 0

SMILES: Nc1cc(C(Cl)=C(Cl)Cl)c(S(N)(=O)=O)cc1S(N)(=O)=O
- neuronal differentiation score (ReNCell VM [1]; library: Spectrum): inactive: -1
- dopaminergic neuron differentiation score (ReNCell VM [2]; library: Spectrum): inactive: 0

SMILES: Cc1nc2n(c(=O)c1CCN1CCC(c3noc4cc(F)ccc34)CC1)CCCC2 [Risperidone]
- neuronal differentiation score (ReNCell VM [1]; library: Prestwick): inactive: 1
- dopaminergic neuron differentiation score (ReNCell VM [2]; library: Prestwick): inactive: 0

SMILES: CC(N)=NCCCC[C@H](N)C(=O)O [L-N6-(1-Iminoethyl)lysine hydrochloride]
- neuronal differentiation score (ReNCell VM [1]; library: LOPAC): inactive: 0
- dopaminergic neuron differentiation score (ReNCell VM [2]; library: LOPAC): inactive: 0

SMILES: CSc1nc(NC2CCCC2)c([N+](=O)[O-])c(NC2CCCC2)n1
- neuronal differentiation score (ReNCell VM [1]; library: Tocriscreen): inactive: 0
- dopaminergic neuron differentiation score (ReNCell VM [2]; library: Tocriscreen): inactive: 0

SMILES: CC(C)C1=CC2=CC[C@@H]3[C@](C)(CCC[C@@]3(C)C(=O)O)[C@H]2CC1
- neuronal differentiation score (ReNCell VM [1]; library: Spectrum): inactive: 0
- dopaminergic neuron differentiation score (ReNCell VM [2]; library: Spectrum): inactive: 0

SMILES: CC(C)NCCN(C(C)C)S(=O)(=O)c1ccc(Cl)cc1Cl
- neuronal differentiation score (ReNCell VM [1]; library: Tocriscreen): inactive: 0
- dopaminergic neuron differentiation score (ReNCell VM [2]; library: Tocriscreen): inactive: 0

SMILES: O=C(O)CN1C(=O)c2cccc3cccc(c23)C1=O [Alrestatin]
- neuronal differentiation score (ReNCell VM [1]; library: Tocriscreen): inactive: 0
- dopaminergic neuron differentiation score (ReNCell VM [2]; library: Tocriscreen): inactive: 0

SMILES: Cc1cccc(C(=O)NCN2CCN(c3ccccc3C#N)CC2)c1 [PD 168,077 maleate]
- neuronal differentiation score (ReNCell VM [1]; library: LOPAC): inactive: 0
- dopaminergic neuron differentiation score (ReNCell VM [2]; library: LOPAC): inactive: 1

SMILES: CC(=O)OCC(=O)[C@@]12OC(C)(C)O[C@@H]1C[C@H]1[C@@H]3C[C@H](F)C4=CC(=O)C=C[C@]4(C)[C@@]3(F)[C@@H](O)C[C@@]12C [Fluocinonide]
- neuronal differentiation score (ReNCell VM [1]; library: Prestwick): inactive: 0
- dopaminergic neuron differentiation score (ReNCell VM [2]; library: Prestwick): inactive: 0

SMILES: O=c1c(O)c(-c2ccccc2)oc2cc(O)cc(O)c12
- neuronal differentiation score (ReNCell VM [1]; library: Spectrum): inactive: 0
- dopaminergic neuron differentiation score (ReNCell VM [2]; library: Spectrum): inactive: 0

SMILES: C[C@]12CCC(=O)C=C1CC[C@@H]1[C@@H]2[C@@H](O)C[C@@]2(C)[C@H]1CC[C@]2(O)C(=O)COC(=O)CCC(=O)O
- neuronal differentiation score (ReNCell VM [1]; library: Spectrum): inactive: 0
- dopaminergic neuron differentiation score (ReNCell VM [2]; library: Spectrum): inactive: 0

SMILES: CCc1nn(CCCN2CCN(c3cccc(Cl)c3)CC2)c(=O)n1CCOc1ccccc1 [Nefazodone hydrochloride]
- neuronal differentiation score (ReNCell VM [1]; library: Tocriscreen): inactive: 0
- dopaminergic neuron differentiation score (ReNCell VM [2]; library: Tocriscreen): inactive: 0

SMILES: CN1C(=O)CC(C)(c2ccccc2)C1=O (stereo unspecified)
- neuronal differentiation score (ReNCell VM [1]; library: Spectrum): inactive: 0
- dopaminergic neuron differentiation score (ReNCell VM [2]; library: Spectrum): inactive: 0

SMILES: NS(=O)(=O)c1cc2c(cc1Cl)NC(C(Cl)Cl)NS2(=O)=O (stereo unspecified) [Trichlormethiazide]
- neuronal differentiation score (ReNCell VM [1]; library: Prestwick): inactive: 0
- dopaminergic neuron differentiation score (ReNCell VM [2]; library: Prestwick): inactive: 0

SMILES: COc1cccc(OC)c1OCCNCC1COc2ccccc2O1 (stereo unspecified) [WB 4101 hydrochloride]
- neuronal differentiation score (ReNCell VM [1]; library: Tocriscreen): inactive: 1
- dopaminergic neuron differentiation score (ReNCell VM [2]; library: Tocriscreen): inactive: 0

SMILES: COc1ccc2[nH]c3c(c2c1)CCNC3=O [1,2,3,4-tetrahydro-6-methoxy-1-oxo-beta-carboline]
- neuronal differentiation score (ReNCell VM [1]; library: Natural): inactive: 0
- dopaminergic neuron differentiation score (ReNCell VM [2]; library: Natural): inactive: 0

SMILES: Oc1cc2c(cc1O)C1c3ccc(O)c(O)c3OCC1(O)C2 (stereo unspecified) [haematoxylin]
- neuronal differentiation score (ReNCell VM [1]; library: Natural): inactive: 0
- dopaminergic neuron differentiation score (ReNCell VM [2]; library: Natural): inactive: 0

SMILES: COc1cc2cc3c4cc(OC)c(OC)cc4cc[n+]3c(C)c2cc1OC [Coralyne chloride hydrate]
- neuronal differentiation score (ReNCell VM [1]; library: Phytochemical): inactive: 0
- dopaminergic neuron differentiation score (ReNCell VM [2]; library: Phytochemical): inactive: 0

SMILES: CC(C)[C@@H]1CC[C@@H](C)C[C@H]1O [L-menthol]
- neuronal differentiation score (ReNCell VM [1]; library: Phytochemical): inactive: 0
- dopaminergic neuron differentiation score (ReNCell VM [2]; library: Phytochemical): inactive: 0

SMILES: C=C1CC[C@@H]2[C@](C)(CO)[C@H](O)CC[C@@]2(C)[C@@H]1C/C=C1/C(=O)OC[C@H]1O [andrographolide]
- neuronal differentiation score (ReNCell VM [1]; library: Natural): inactive: 0
- dopaminergic neuron differentiation score (ReNCell VM [2]; library: Natural): inactive: 0

SMILES: COc1ccc(C2c3cc(OC)c(OC)cc3CC3=c4cc(OC)c(OC)cc4=CCN32)cc1OC (stereo unspecified)
- neuronal differentiation score (ReNCell VM [1]; library: Natural): inactive: 0
- dopaminergic neuron differentiation score (ReNCell VM [2]; library: Natural): inactive: 0

SMILES: COC(=O)[C@H]1[C@H]2C[C@H]3c4[nH]c5ccccc5c4CCN3C[C@@H]2CC[C@@H]1O [Corynanthine hydrochloride]
- neuronal differentiation score (ReNCell VM [1]; library: Phytochemical): inactive: 0
- dopaminergic neuron differentiation score (ReNCell VM [2]; library: Phytochemical): inactive: 0

SMILES: c1ccc2c3c([nH]c2c1)C1C2CCC(C4CCCNC42)N1CC3 (stereo unspecified) [Nitrarine dihydrochloride]
- neuronal differentiation score (ReNCell VM [1]; library: Phytochemical): inactive: 0
- dopaminergic neuron differentiation score (ReNCell VM [2]; library: Phytochemical): inactive: 0

SMILES: C[C@](N)(Cc1ccc(O)c(O)c1)C(=O)O [Methyldopa (L,-)]
- neuronal differentiation score (ReNCell VM [1]; library: Prestwick): inactive: 0
- dopaminergic neuron differentiation score (ReNCell VM [2]; library: Prestwick): inactive: 0

SMILES: Cn1c([N+](=O)[O-])cnc1COC(N)=O [Ronidazole]
- neuronal differentiation score (ReNCell VM [1]; library: Prestwick): inactive: 0
- dopaminergic neuron differentiation score (ReNCell VM [2]; library: Prestwick): inactive: 0
